# Experimental data reported in the supplement of paper PMC10849652.
# The chains behind the UniProt entries cited, without tags or fusion partners. Where a name states a change or a piece, a line headed by the entry shows the natural chain unless it says otherwise.
# UniProt P51790: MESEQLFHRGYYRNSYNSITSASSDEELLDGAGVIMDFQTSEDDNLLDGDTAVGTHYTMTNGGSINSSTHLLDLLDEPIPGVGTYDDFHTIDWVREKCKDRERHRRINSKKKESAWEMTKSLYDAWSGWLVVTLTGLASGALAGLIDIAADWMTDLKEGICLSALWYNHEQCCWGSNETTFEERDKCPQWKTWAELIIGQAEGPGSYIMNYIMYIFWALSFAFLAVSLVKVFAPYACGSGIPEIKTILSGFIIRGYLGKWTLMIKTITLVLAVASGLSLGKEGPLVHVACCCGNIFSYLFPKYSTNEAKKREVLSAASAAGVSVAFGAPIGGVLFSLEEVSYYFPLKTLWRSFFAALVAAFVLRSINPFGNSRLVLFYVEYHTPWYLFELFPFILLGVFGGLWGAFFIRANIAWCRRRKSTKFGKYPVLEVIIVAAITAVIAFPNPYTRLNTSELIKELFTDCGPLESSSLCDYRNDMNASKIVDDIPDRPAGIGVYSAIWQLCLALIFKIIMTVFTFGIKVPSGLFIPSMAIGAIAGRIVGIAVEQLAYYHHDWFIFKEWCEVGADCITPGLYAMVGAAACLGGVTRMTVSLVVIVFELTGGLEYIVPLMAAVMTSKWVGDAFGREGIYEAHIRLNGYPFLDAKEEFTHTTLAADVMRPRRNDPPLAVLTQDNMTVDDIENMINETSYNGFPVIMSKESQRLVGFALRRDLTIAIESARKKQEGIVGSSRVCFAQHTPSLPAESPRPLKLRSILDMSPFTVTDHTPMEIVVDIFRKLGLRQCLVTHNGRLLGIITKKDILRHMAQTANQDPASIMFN
# UniProt Q8N1G2: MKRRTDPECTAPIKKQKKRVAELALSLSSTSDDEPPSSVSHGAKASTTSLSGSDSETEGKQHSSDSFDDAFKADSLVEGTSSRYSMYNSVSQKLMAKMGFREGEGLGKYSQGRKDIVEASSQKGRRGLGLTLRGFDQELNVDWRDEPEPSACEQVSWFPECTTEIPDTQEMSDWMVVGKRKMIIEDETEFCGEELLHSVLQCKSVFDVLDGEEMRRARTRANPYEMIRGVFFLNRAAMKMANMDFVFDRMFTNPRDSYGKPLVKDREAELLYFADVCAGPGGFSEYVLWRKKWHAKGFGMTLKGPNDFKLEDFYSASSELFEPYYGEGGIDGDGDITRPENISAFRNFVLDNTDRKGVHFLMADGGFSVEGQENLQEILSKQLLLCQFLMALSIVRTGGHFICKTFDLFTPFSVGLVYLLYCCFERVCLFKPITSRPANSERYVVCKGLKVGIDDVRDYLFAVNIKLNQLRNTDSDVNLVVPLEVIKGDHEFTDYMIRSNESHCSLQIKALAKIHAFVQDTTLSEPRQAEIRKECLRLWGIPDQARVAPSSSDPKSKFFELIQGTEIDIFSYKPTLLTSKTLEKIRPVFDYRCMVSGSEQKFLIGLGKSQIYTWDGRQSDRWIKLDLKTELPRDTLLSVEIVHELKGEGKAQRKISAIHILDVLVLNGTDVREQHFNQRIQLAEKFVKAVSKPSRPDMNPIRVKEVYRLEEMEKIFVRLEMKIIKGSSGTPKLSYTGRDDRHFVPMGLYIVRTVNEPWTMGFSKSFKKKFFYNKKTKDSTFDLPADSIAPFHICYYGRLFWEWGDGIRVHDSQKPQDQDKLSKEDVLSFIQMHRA
# UniProt A5YKK6, whole entry, looked up: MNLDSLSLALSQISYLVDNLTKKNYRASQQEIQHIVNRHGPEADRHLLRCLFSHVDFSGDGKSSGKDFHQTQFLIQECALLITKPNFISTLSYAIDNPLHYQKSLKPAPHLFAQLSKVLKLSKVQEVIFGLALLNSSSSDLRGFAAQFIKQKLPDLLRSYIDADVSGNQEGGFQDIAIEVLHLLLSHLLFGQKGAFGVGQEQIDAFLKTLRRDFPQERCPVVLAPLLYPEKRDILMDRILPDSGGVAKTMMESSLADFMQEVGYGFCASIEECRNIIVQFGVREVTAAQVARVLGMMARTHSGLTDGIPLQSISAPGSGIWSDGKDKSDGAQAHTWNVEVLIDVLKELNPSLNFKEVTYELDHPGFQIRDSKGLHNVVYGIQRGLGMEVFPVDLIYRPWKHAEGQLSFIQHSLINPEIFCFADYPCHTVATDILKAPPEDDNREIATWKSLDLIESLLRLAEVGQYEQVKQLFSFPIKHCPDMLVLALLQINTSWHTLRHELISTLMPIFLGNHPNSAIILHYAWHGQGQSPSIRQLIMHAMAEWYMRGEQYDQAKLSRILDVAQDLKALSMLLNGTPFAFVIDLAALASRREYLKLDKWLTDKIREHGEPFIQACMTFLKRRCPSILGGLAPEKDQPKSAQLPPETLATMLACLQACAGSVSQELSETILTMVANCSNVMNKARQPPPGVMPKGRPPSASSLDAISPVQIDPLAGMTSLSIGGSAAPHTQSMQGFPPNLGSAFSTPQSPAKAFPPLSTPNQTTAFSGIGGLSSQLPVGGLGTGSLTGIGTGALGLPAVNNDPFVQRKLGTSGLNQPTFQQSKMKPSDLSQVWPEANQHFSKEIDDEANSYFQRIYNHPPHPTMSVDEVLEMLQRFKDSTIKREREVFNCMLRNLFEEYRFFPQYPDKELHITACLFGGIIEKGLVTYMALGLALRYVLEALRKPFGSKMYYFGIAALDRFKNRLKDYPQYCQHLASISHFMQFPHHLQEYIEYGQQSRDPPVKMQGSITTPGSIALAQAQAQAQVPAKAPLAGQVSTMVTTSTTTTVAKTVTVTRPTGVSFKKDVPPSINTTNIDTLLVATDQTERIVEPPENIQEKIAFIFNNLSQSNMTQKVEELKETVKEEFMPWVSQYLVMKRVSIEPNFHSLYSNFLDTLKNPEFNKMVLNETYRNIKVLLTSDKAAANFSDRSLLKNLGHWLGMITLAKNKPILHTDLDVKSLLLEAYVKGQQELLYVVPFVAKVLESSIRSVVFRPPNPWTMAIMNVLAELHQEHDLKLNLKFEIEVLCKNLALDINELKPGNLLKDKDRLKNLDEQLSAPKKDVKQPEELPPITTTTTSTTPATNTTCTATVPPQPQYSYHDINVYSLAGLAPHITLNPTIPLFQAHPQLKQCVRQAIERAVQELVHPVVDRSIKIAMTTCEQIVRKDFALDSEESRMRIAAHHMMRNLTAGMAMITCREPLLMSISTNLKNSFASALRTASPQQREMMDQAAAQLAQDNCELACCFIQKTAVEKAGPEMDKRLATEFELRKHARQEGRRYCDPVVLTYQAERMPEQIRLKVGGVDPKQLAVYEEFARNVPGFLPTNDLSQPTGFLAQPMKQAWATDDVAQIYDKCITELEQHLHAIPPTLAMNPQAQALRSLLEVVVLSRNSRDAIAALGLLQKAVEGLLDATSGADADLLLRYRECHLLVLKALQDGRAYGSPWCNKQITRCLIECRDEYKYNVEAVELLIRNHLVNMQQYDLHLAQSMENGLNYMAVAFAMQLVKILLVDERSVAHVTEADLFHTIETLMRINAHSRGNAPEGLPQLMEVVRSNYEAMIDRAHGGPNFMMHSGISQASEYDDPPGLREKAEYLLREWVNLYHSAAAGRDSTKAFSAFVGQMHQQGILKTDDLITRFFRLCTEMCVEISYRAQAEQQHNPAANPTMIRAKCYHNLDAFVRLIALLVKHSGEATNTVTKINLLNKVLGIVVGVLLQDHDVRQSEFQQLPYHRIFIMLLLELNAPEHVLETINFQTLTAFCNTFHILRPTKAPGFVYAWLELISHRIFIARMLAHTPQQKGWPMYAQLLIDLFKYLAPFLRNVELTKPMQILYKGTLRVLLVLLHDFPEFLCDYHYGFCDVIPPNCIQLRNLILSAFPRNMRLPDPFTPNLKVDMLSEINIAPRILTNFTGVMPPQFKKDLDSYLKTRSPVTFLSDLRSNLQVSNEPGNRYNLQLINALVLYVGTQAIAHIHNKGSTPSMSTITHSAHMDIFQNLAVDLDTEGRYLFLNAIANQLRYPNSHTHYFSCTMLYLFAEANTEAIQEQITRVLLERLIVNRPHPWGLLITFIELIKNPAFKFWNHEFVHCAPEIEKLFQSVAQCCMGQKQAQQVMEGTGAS
# UniProt O76031, whole entry, looked up: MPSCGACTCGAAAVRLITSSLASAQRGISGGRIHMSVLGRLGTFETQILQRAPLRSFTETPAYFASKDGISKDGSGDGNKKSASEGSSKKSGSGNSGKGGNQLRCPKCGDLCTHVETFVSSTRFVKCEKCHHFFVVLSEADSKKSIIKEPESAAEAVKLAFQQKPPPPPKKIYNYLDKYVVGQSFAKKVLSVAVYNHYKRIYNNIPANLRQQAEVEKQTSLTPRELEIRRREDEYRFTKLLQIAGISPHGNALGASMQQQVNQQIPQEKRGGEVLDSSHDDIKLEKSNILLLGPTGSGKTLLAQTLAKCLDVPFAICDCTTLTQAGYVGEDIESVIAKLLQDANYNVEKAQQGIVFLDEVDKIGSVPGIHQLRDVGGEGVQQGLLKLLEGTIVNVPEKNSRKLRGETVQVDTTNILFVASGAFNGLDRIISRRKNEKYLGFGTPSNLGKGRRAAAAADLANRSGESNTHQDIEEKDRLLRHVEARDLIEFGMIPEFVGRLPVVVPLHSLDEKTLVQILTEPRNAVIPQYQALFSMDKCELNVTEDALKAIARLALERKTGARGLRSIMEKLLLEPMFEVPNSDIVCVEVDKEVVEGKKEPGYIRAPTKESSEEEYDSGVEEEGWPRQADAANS
# UniProt Q15417: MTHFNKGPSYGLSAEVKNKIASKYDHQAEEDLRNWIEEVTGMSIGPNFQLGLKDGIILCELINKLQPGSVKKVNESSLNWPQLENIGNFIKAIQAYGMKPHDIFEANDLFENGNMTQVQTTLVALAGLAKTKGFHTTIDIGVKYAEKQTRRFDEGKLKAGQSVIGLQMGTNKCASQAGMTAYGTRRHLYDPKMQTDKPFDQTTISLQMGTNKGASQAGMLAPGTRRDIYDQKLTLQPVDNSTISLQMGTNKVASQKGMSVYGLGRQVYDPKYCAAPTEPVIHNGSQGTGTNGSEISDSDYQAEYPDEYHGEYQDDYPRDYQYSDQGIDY
# UniProt P09497: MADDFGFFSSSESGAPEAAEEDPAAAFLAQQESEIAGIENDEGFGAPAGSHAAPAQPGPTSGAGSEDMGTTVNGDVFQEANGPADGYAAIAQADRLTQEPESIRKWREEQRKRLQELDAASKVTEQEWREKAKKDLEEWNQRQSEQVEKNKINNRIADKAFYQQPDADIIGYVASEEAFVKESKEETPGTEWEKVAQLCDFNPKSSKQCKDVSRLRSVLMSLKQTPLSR
# UniProt Q8IWV2: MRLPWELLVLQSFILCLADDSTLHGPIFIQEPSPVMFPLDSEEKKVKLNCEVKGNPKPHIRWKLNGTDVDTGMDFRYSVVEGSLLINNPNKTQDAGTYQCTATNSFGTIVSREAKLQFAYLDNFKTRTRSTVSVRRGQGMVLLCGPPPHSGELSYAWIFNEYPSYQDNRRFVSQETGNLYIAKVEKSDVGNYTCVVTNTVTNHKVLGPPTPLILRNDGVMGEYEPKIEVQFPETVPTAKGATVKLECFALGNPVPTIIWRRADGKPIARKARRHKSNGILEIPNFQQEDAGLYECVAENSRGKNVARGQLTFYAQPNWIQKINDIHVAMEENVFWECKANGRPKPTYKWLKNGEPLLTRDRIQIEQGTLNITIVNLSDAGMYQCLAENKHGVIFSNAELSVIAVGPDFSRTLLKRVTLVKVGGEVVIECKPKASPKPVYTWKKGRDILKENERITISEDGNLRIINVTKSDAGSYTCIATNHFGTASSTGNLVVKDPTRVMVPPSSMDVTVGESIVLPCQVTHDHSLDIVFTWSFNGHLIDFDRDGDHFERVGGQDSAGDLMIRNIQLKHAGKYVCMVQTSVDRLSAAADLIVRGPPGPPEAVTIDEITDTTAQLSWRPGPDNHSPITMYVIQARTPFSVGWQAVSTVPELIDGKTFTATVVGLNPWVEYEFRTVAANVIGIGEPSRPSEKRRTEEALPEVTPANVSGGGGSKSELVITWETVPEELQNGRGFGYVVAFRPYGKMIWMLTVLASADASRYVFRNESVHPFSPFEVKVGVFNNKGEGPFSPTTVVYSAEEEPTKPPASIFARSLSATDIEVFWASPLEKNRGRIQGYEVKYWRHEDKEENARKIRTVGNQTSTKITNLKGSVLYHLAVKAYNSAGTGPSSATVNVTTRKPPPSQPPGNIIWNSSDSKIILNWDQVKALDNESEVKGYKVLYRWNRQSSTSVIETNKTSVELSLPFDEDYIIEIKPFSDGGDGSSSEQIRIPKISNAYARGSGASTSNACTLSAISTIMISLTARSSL
# UniProt Q99439: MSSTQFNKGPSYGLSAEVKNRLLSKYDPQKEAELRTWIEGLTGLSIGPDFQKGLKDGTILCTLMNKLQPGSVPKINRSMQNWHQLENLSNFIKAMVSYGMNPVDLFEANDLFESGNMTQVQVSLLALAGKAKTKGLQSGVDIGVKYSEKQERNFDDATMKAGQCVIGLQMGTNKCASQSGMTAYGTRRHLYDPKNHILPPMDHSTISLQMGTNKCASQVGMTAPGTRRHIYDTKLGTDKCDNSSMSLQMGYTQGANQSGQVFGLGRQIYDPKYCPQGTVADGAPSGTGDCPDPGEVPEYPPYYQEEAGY
# The other results are listed elsewhere or left out.
# Columns and labels:
# Assay in all cases: log2 fold change, soluble protein after heating vs DMSO (PISA); higher = thermal stabilisation; K562 cells, 10 uM, 30 min; active = over 0.2 and 3.5 SD of the protein, either way, in both replicates (recomputed)
# [1] = compound: CC[C@@H]1C(=O)N(C)c2cnc(Nc3ccc(C(=O)NC4CCN(C)CC4)cc3OC)nc2N1C1CCCC1
# How it was run: (§1)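 Values are thermal stability changes relative to control samples and are taken from duplicates. They are stated as log2 fold changes. Before quantification by TMTpro 16plex LC-MS/MS with equalised channel sums, K562 cells at 2×10^6 cells/mL were treated with 10 μM compound for 30 min, heated in aliquots for 3 min across 48°C-58°C, pooled, extracted in PBS with 0.5% NP-40 at 4°C, and centrifuged at 21,000xg for 90 min to give the soluble supernatant.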
# volasertib = compound: CC[C@@H]1C(=O)N(C)c2cnc(Nc3ccc(C(=O)N[C@H]4CC[C@H](N5CCN(CC6CC6)CC5)CC4)cc3OC)nc2N1C(C)C [volasertib]
# How it was run: as §1
# [2] = compound: CC[C@H](C)N1C=C(C2=C(C=C(C=C21)C3=CN=C(C=C3)N4CCNCC4)C(=O)NCC5=C(C=C(NC5=O)C)C)C
# How it was run: as §1
# epoxomicin = compound: CC[C@H](C)[C@@H](C(=O)N[C@@H]([C@@H](C)O)C(=O)N[C@@H](CC(C)C)C(=O)[C@]1(CO1)C)NC(=O)[C@H]([C@@H](C)CC)N(C)C(=O)C [epoxomicin]
# How it was run: as §1
# [3] = compound: CCn1cc(-c2ccnc3[nH]c(-c4cccc(CN(C)C)c4)cc23)c(-c2ccc(NC(=O)N(C)C)cc2)n1
# How it was run: as §1
# [4] = compound: CN(C)CC(=O)Nc1ccc2[nH]c(=O)c3ccccc3c2c1
# How it was run: as §1
# [5] = compound: CN1C2=C(C3=C1C(=O)N(N=C3)CC4=CC(=CC=C4)N)SC(=C2)S(=O)C
# How it was run: as §1
# [6] = compound: CN1CCC(CNc2ccc3ncc(-c4cccc(OC(F)(F)F)c4)n3n2)CC1
# How it was run: as §1
# saracatinib = compound: CN1CCN(CCOc2cc(OC3CCOCC3)c3c(Nc4c(Cl)ccc5c4OCO5)ncnc3c2)CC1 [saracatinib]
# How it was run: as §1
# sotrastaurin = compound: CN1CCN(c2nc(C3=C(c4c[nH]c5ccccc45)C(=O)NC3=O)c3ccccc3n2)CC1 [sotrastaurin]
# How it was run: as §1
# Tubastatin A = compound: CN1CCc2c(c3ccccc3n2Cc2ccc(C(=O)NO)cc2)C1 [Tubastatin A]
# How it was run: as §1
# [7] = compound: CNC(=O)C1=CC=CC=C1NC2=NC(=NC=C2Cl)NC3=C(C=C(C=C3)N4CCOCC4)OC
# How it was run: as §1
# defactinib = compound: CNC(=O)c1ccc(Nc2ncc(C(F)(F)F)c(NCc3nccnc3N(C)S(C)(=O)=O)n2)cc1 [defactinib]
# How it was run: as §1
# rucaparib = compound: CNCc1ccc(-c2[nH]c3cc(F)cc4c3c2CCNC4=O)cc1 [rucaparib]
# How it was run: as §1
# [8] = compound: CNc1nc(-c2ccc3c(N)n[nH]c3c2)cc(N2C[C@@H](C(=O)NC3CCCCC3)CC[C@H]2C)n1
# How it was run: as §1
# encorafenib = compound: COC(=O)N[C@@H](C)CNc1nccc(-c2cn(C(C)C)nc2-c2cc(Cl)cc(NS(C)(=O)=O)c2F)n1 [encorafenib]
# How it was run: as §1
# [9] = compound: COC(=O)[C@H](CCSC)NC(=O)C1=C(C=C(C=C1)NC[C@H](CS)N)C2=CC=CC=C2
# How it was run: as §1
# [10] = compound: CCn1c(C(=O)N(C2CC2)C2CC2)cc2c3c(ncn3C)c(Nc3cc(C)n(C)n3)nc21
# How it was run: as §1
# rosiglitazone = compound: CN(CCOC1=CC=C(C=C1)C[C@H]2C(=O)NC(=O)S2)C3=CC=CC=N3 (racemic) [rosiglitazone]
# How it was run: as §1
Target,log2 fold change [1],log2 fold change (volasertib),log2 fold change [2],log2 fold change (epoxomicin),log2 fold change [3],log2 fold change [4],log2 fold change [5],log2 fold change [6],log2 fold change (saracatinib),log2 fold change (sotrastaurin),log2 fold change (Tubastatin A),log2 fold change [7],log2 fold change (defactinib),log2 fold change (rucaparib),log2 fold change [8],log2 fold change (encorafenib),log2 fold change [9],log2 fold change [10],log2 fold change (rosiglitazone)
CLINT1 isoform 3 (UniProt Q14677),inactive: 0.17,inactive: 0.047,inactive: -0.01,inactive: -0.038,inactive: 0.042,inactive: -0.06,inactive: 0.075,active: 0.259,inactive: 0.083,inactive: 0.041,inactive: -0.036,inactive: 0.185,inactive: 0.035,inactive: 0.109,inactive: -0.06,inactive: -0.059,inactive: 0.012,,
CLCN7 (UniProt P51798),active: -0.338,inactive: -0.297,inactive: 0.031,inactive: -0.001,inactive: -0.047,inactive: -0.01,inactive: 0.009,active: -1.05,inactive: 0.004,inactive: -0.112,inactive: -0.071,inactive: 0.044,inactive: 0.025,inactive: -0.052,inactive: -0.156,inactive: 0.151,inactive: -0.04,,
CLCN3 isoform 2 (UniProt P51790),inactive: -0.047,inactive: -0.113,inactive: 0.026,inactive: 0.003,inactive: -0.032,inactive: 0.024,inactive: -0.028,inactive: -0.079,inactive: 0.104,inactive: -0.002,inactive: -0.06,inactive: -0.018,inactive: -0.009,inactive: -0.002,inactive: -0.015,inactive: -0.027,inactive: -0.014,,
CMTR1 (UniProt Q8N1G2),inactive: -0.053,inactive: -0.199,inactive: 0.024,inactive: 0.039,inactive: -0.049,inactive: 0.038,inactive: -0.055,inactive: -0.037,inactive: 0.009,inactive: 0.018,inactive: -0.052,inactive: 0.045,inactive: -0.026,inactive: 0.003,inactive: 0.099,inactive: 0.06,inactive: -0.091,,
COASY isoform 2 (UniProt Q13057),inactive: -0.068,active: -0.266,inactive: 0.027,inactive: -0.013,inactive: -0.052,inactive: 0.038,inactive: -0.08,inactive: -0.132,inactive: 0.003,inactive: -0.001,inactive: -0.001,inactive: 0.035,inactive: -0.065,inactive: 0.011,inactive: -0.03,inactive: 0.034,inactive: -0.029,,
CIT isoform 4 (UniProt O14578),inactive: 0.068,inactive: -0.225,inactive: 0.134,inactive: 0.017,inactive: -0.033,inactive: -0.037,inactive: 0,inactive: -0.033,inactive: -0.044,inactive: -0.033,inactive: 0.074,inactive: 0.054,inactive: -0.034,inactive: -0.202,inactive: -0.055,inactive: -0.025,inactive: -0.001,,
CLPP (UniProt Q16740),inactive: -0.03,inactive: 0.035,inactive: -0.045,inactive: -0.056,inactive: -0.015,inactive: 0.017,inactive: 0,inactive: 0.081,inactive: 0,inactive: 0.009,inactive: 0.067,inactive: 0.054,inactive: -0.017,inactive: 0.026,inactive: -0.028,inactive: -0.077,inactive: -0.038,,
CHP1 (UniProt Q99653),inactive: -0.069,inactive: -0.036,inactive: 0.033,inactive: 0.061,inactive: -0.007,inactive: 0.063,inactive: 0.034,inactive: -0.028,inactive: -0.09,inactive: 0.068,inactive: 0.041,inactive: 0.085,inactive: -0.006,inactive: 0.068,inactive: -0.219,inactive: -0.016,inactive: 0.021,,
CNOT1 (UniProt A5YKK6),inactive: -0.051,active: -0.312,inactive: 0.056,inactive: -0.028,inactive: 0.028,inactive: 0.061,inactive: 0.011,inactive: -0.082,inactive: -0.025,inactive: -0.087,inactive: -0.003,inactive: 0.03,inactive: -0.057,inactive: 0.077,inactive: 0.024,inactive: 0.074,inactive: -0.031,,
CLPX (UniProt O76031),inactive: 0.039,inactive: 0.192,inactive: -0.06,inactive: -0.019,inactive: -0.022,inactive: 0.026,inactive: -0.01,inactive: 0.072,inactive: 0.014,inactive: 0.014,inactive: 0.025,inactive: -0.016,inactive: -0.027,inactive: 0.034,inactive: -0.038,inactive: -0.013,inactive: -0.01,,
COIL (UniProt P38432),inactive: 0.01,inactive: 0.107,inactive: 0.126,inactive: -0.033,,,inactive: 0.043,,inactive: -0.023,inactive: -0.23,inactive: 0.008,inactive: 0.1,,inactive: -0.268,inactive: -0.029,inactive: 0.077,,inactive: 0.055,inactive: 0.165
CLCN3 (UniProt P51790),inactive: 0.036,inactive: -0.095,inactive: -0.037,inactive: -0.015,inactive: 0.065,inactive: 0.011,inactive: -0.051,inactive: -0.213,inactive: 0,inactive: 0.021,inactive: -0.14,inactive: 0.019,inactive: 0.004,inactive: -0.055,inactive: -0.057,inactive: 0.021,inactive: -0.06,,
CNN3 (UniProt Q15417),inactive: -0.08,active: -0.368,inactive: 0.072,inactive: 0.066,inactive: 0.008,inactive: 0.106,inactive: -0.018,inactive: -0.055,inactive: 0.063,inactive: -0.122,inactive: 0.02,inactive: 0.036,inactive: -0.13,inactive: 0.048,inactive: 0.008,inactive: 0.009,inactive: 0,,
CLTB (UniProt P09497),inactive: 0.099,inactive: 0.134,inactive: -0.102,inactive: 0.032,inactive: -0.006,inactive: -0.024,inactive: -0.064,inactive: 0.106,inactive: 0.064,inactive: 0.017,inactive: -0.019,inactive: -0.034,inactive: 0.063,inactive: -0.039,inactive: -0.009,inactive: -0.014,inactive: 0.031,,
CNOT4 isoform 6 (UniProt O95628),inactive: -0.008,inactive: -0.109,inactive: 0.031,inactive: 0.006,inactive: -0.056,inactive: 0.003,inactive: 0.028,inactive: -0.095,inactive: 0,inactive: 0.003,inactive: -0.003,inactive: -0.014,inactive: -0.03,inactive: -0.044,inactive: -0.07,inactive: -0.023,inactive: -0.015,,
CNTN4 (UniProt Q8IWV2),inactive: -0.016,inactive: -0.14,inactive: -0.084,inactive: 0.149,inactive: -0.157,inactive: 0,inactive: -0.077,inactive: -0.102,inactive: -0.026,inactive: -0.033,inactive: 0.256,inactive: -0.225,inactive: -0.06,inactive: -0.01,inactive: -0.016,inactive: -0.082,inactive: 0.004,,
CNN2 (UniProt Q99439),inactive: -0.149,active: -0.354,inactive: 0.058,inactive: 0.106,inactive: 0.03,inactive: 0.023,inactive: 0.012,inactive: -0.055,inactive: 0.004,inactive: -0.161,inactive: 0,inactive: -0.003,inactive: -0.087,inactive: -0.008,inactive: -0.077,inactive: 0.023,inactive: 0,,

# Copied from the list.
# Entry for CNTN4 (UniProt Q8IWV2) under log2 fold change [3]: inactive: -0.157
# Entry for CLTB (UniProt P09497) under log2 fold change (saracatinib): inactive: 0.064
